From PubChem BioAssay AID588590 (National Center for Advancing Translational Sciences (NCATS), 2011)
Several values for one entry are separate records, joined by “and”; a condition that tells them apart may be missing. Equal entries are not always repeated. The campaign covered roughly 390,000 compounds. About 4,000 (1%) were called active. Inconclusive means that the source gave no clear call. Such entries were picked first, then a sample of the others. Calls follow the shape of the dose curve; as a rule, active = well fitted inhibition curve with a large enough effect; inconclusive = small, poorly fitted or top-dose-only effect, or another doubt; inactive = no such curve, though single readings can be large or run the other way. Potencies of inconclusive entries are doubtful fits and often do not repeat.

Sequences of proteins named here, by UniProt entry; tags and fusion partners are left off. A change or cut given only in a name is not applied to a line headed by its entry.
UniProt Q9UNA4: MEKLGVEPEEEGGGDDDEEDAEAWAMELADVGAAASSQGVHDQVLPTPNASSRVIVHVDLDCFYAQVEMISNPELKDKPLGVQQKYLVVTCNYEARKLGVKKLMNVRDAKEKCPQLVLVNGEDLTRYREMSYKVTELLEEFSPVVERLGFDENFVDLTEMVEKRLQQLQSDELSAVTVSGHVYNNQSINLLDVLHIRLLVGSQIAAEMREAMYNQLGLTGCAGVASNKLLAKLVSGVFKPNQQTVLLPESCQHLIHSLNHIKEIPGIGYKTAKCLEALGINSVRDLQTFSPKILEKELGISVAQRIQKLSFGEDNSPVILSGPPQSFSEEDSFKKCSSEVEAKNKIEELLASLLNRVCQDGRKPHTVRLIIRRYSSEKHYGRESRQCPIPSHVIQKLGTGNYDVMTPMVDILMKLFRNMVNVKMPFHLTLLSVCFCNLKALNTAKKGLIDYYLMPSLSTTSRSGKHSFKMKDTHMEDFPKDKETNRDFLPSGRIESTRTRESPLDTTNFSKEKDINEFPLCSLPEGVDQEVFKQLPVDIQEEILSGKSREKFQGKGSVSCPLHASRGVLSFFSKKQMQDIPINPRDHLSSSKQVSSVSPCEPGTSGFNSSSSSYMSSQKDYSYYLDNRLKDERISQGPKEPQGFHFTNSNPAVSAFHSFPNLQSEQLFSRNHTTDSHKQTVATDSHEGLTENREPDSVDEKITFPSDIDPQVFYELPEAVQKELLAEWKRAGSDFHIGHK

biological target: DNA polymerase iota (Homo sapiens) (UniProt Q9UNA4); assay: qHTS for Inhibitors of Polymerase Iota; conditions: Pol iota fluorescent replication assay, 10 min; series mostly up to 115 µM; activity, negative = inhibition: at the top concentration
Outline: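 Pol iota at 10 nM preincubated 15 min with compounds at room temperature; reaction started with fluorescent substrate, 50 nM final. Fluorescence read kinetically at 0 and 10 min; buffer-only wells as negative control.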
Potency is read from the fitted curve at half-maximal effect.

Row | Structure (SMILES) | Potency | activity, negative = inhibition
1 | O=C(O)CCCCCn1c(SCC(=O)N2CCCC2)nc2ccsc2c1=O | inconclusive: 112 µM [inhibitor, partial curve, poor fit] | –
2 | COc1ccc(CCNC(=O)c2cnn(-c3ccc(F)cc3)c2C2CCN(C(=O)OC(C)(C)C)CC2)cc1OC | – | inactive: 18.2%
3 | COc1ccc(CC(=O)NCC(=O)Nc2ccccc2Br)cc1 | inconclusive: 44.7 µM [inhibitor, partial curve] | –
4 | Cc1nc(N)sc1-c1ccccc1 | inconclusive: 89.1 µM [inhibitor, partial curve, poor fit] | –
5 | COc1cc(/C=C/C(C)=O)cc(OC)c1OC | inconclusive: 11.2 µM [inhibitor, partial curve, poor fit] | –
6 | CCC(c1ccccc1)C(CC)c1cc(O)c(O)c(O)c1 (stereo not given) | inconclusive: 39.8 µM [inhibitor, partial curve] | –
7 | O=C(Cn1c(=O)n(Cc2ccco2)c(=O)c2c3c(sc21)CCCCC3)c1ccccc1 | inconclusive: 12.6 µM [inhibitor, partial curve, poor fit] | –
8 | CCOc1ccc(/C=C/c2nc(C#N)c(N3CCN(CC)CC3)o2)cc1 | – | inactive: 18.5%
9 | O=C1OC(/C=C/c2ccc(Cl)cc2)=NC/1=C/c1ccco1 | inconclusive: 22.4 µM [inhibitor, partial curve] | –
10 | C/C(=N\NC(=O)c1nn(C)c(C)c1Br)c1ccc(NC(=O)c2ccc(C)s2)cc1 | inconclusive: 89.1 µM [inhibitor, partial curve, poor fit] | –
11 | COc1ccc(N2CCN(S(=O)(=O)c3ccc4c(c3)NC(=O)C(C)C(=O)N4)CC2)cc1 (stereo not given) | – | inactive: -18.4%
12 | C/C(N)=C(/C#N)C(=O)CSc1nnc(Nc2cccc(C)c2)s1 | inconclusive: 14.1 µM [inhibitor, partial curve, poor fit] and inconclusive: 14.1 µM [inhibitor, full curve, poor fit] | –
13 | COc1cccc2cc(C(=O)N3CCN(c4cc(C)ccc4C)CC3)c(=O)oc12 | inconclusive: 3.55 µM [inhibitor, partial curve, poor fit] | –
14 | CCN(Cc1ccncc1)S(=O)(=O)c1ccc(C(C)=O)cc1 | inconclusive: 20 µM [inhibitor, single point] | –
15 | Cc1cc(NC(=O)c2cncc(Br)c2)ccc1NC(=O)c1cc2ccccc2o1 | inconclusive: 12.6 µM [inhibitor, partial curve] | –
16 | CCN1CCN(c2c(/C=C3\SC(=S)N(Cc4ccco4)C3=O)c(C)c(C#N)c(=O)n2C)CC1 | inconclusive: 63.1 µM [inhibitor, partial curve, poor fit] | –
17 | Cc1ccc(NC(=O)CCn2c(=S)oc3ccccc32)cc1 | inconclusive: 89.1 µM [inhibitor, single point] | –
18 | COc1ccc(OC)c(NC(=O)c2c(NCc3cccs3)sc3c2CCCCC3)c1 | inconclusive: 12.6 µM [inhibitor, partial curve, poor fit] | –
19 | CCN(CC)c1ccc(NC(=O)c2c(C)nn(-c3ccc(F)cc3)c2-n2cccc2)c(C)c1 | – | inactive: 9.56%
20 | O=C(CSc1nnc(-c2ccccn2)n1Cc1ccco1)c1ccc(-c2ccccc2)cc1 | inconclusive: 20 µM [inhibitor, partial curve, poor fit] | –

Whole records from above:
O=C(Cn1c(=O)n(Cc2ccco2)c(=O)c2c3c(sc21)CCCCC3)c1ccccc1 in the list: Potency: inconclusive: 12.6 µM [inhibitor, partial curve, poor fit]
CCN1CCN(c2c(/C=C3\SC(=S)N(Cc4ccco4)C3=O)c(C)c(C#N)c(=O)n2C)CC1 in the list: Potency: inconclusive: 63.1 µM [inhibitor, partial curve, poor fit]
C/C(N)=C(/C#N)C(=O)CSc1nnc(Nc2cccc(C)c2)s1 in the list: Potency: inconclusive: 14.1 µM [inhibitor, partial curve, poor fit] and inconclusive: 14.1 µM [inhibitor, full curve, poor fit]

(further entries)

Row | Structure (SMILES) | Potency | activity, negative = inhibition
21 | CCc1ccccc1NC(=O)CN(C)S(=O)(=O)c1cccc2nsnc12 | – | inactive: -9.5%
22 | [O-][n+]1c2ccccc2[n+]([O-])c2cc(O)ccc21 | inconclusive: 8.91 µM [inhibitor, full curve, poor fit] | –
23 | COc1cccc(C(=O)NNC(=O)c2ccc3ccccc3c2O)c1 | inconclusive: 50.1 µM [inhibitor, partial curve, poor fit] | –
24 | COc1cc(NC2c3ncccc3C(=O)N2Cc2ccco2)cc(OC)c1OC (stereo not given) | inconclusive: 11.2 µM [inhibitor, partial curve, poor fit] | –
25 | O=C(Cn1c(=O)n(-c2ccccc2)c(=O)c2c3c(sc21)CCC3)c1ccc(F)cc1 | inconclusive: 89.1 µM [inhibitor, single point] | –
26 | COc1ccc(C2NC(=O)NC(C)=C2C(C)=O)cc1 (stereo not given) | inconclusive: 25.1 µM [inhibitor, full curve] | –
27 | Cc1ccc2c(c1)CCCN2CC(=O)Nc1cc(S(=O)(=O)N2CCCC2)ccc1Cl | inconclusive: 35.5 µM [inhibitor, partial curve, poor fit] | –
28 | O=C(c1c(O)cc(O)cc1O)C1c2c(cc(O)c3c2O[C@H](c2ccc(O)cc2)[C@@H](O)C3)OC1c1ccc(O)cc1 (stereo not given in full) | inconclusive: 44.7 µM [inhibitor, partial curve] | –
29 | CC1=C(C(=O)OCc2ccccc2)C(c2cccc3ccccc23)NC(=O)N1CCCC(=O)O (stereo not given) | inconclusive: 10 µM [inhibitor, full curve, poor fit] | –
30 | Cc1ccc(C2(C)NC(=O)N(CC(=O)Nc3ccc4[nH]c(=O)[nH]c4c3)C2=O)cc1 (stereo not given) | inconclusive: 50.1 µM [inhibitor, partial curve] | –
31 | COc1cccc(N2CCN(C(=O)c3cnc4c(-c5ccccc5)c(C)nn4c3C)CC2)c1 | – | inactive: -11.6%
32 | O=C(C[N+]12CN3CN(CN(C3)C1)C2)c1ccc(Br)cc1 | – | inactive: -6.68%
33 | O=C(CSc1ccc(Cl)cc1)Nc1ccc(N2CCN(C(=O)c3ccco3)CC2)cc1 | inconclusive: 20 µM [inhibitor, full curve, poor fit] | –
34 | O=C1C(N2CCOCC2)=C(n2nnc3ccccc32)C(=O)c2ccccc21 | inconclusive: 5.62 µM [inhibitor, full curve, poor fit] | –
35 | CCN(CC)c1cc(C)c2cc(NC(=O)c3ccc(OC)c(OC)c3)ccc2n1 | inconclusive: 31.6 µM [inhibitor, partial curve] | –
36 | Cc1ccc(NC2=CC(=O)C(=O)c3ccccc32)cc1 | active: 11.2 µM | –
37 | COc1ccc(N=Cc2cc(Cc3ccccc3Cl)cc([N+](=O)[O-])c2O)cc1OC | inconclusive: 39.8 µM [inhibitor, single point] | –
38 | Cc1ccc(C(=O)Nc2cccc3ccccc23)cc1 | inconclusive: 0.708 µM [inhibitor, full curve, poor fit] | –
39 | Cc1cccc(NC(=O)CSc2nnc(-c3ccc(S(=O)(=O)N4CCCC4)cc3)o2)c1 | inconclusive: 70.8 µM [inhibitor, single point] | –
40 | Cc1nnc(SCC(=O)N2CCN(S(=O)(=O)c3ccccc3)CC2)[nH]c1=O | inconclusive: 14.1 µM [inhibitor, partial curve, poor fit] | –

Some of the entries so far, tab-delimited:
Row	Structure (SMILES)	Potency	activity, negative = inhibition
8	CCOc1ccc(/C=C/c2nc(C#N)c(N3CCN(CC)CC3)o2)cc1	–	inactive: 18.5%
24	COc1cc(NC2c3ncccc3C(=O)N2Cc2ccco2)cc(OC)c1OC (stereo not given)	inconclusive: 11.2 µM [inhibitor, partial curve, poor fit]	–

Next compounds:

Row | Structure (SMILES) | Potency | activity, negative = inhibition
41 | Cc1ccc(C(=O)Nc2nc3ccccc3c(=O)s2)cc1 | inconclusive: 50.1 µM [inhibitor, partial curve, poor fit] | –
42 | CN(C)C1=NC[C@H](Cc2ccccc2)N1CCCC1CCCC1 | inconclusive: 10 µM [inhibitor, partial curve] | –
43 | COc1ccc(C2/C=C\CN(C(=O)C3CCCC3)C(C)C(=O)N2Cc2ccc(F)cc2)cc1 (stereo not given) | – | inactive: 11.4%
44 | O=C(CCN=C1NS(=O)(=O)c2ccccc21)OCc1nnc(-c2ccc([N+](=O)[O-])cc2)o1 | inconclusive: 56.2 µM [inhibitor, partial curve, poor fit] | –
45 | CS(=O)(=O)c1sc(C#N)c2c1C(=O)CC(c1ccccc1)C2 (stereo not given) | inconclusive: 7.08 µM [inhibitor, partial curve, poor fit] | –
46 | Nc1ccc(C#Cc2c(-c3ccsc3)oc3ccc(N4CCOCC4)cc23)cc1 | inconclusive: 39.8 µM [inhibitor, single point] | –
47 | CCOCCCNC(=O)c1ccc(N2CCOCC2)c(NS(=O)(=O)c2ccc(OC)cc2)c1 | – | inactive: 24%
48 | O=C(Nc1ccccc1N1CCN(C(=O)c2ccc(Cl)cc2)CC1)c1cc2ccccc2o1 | inconclusive: 3.16 µM [inhibitor, single point] | –
49 | Cc1cc(COC(=O)C2N3C(=O)[C@@H](NC(=O)COc4ccccc4)[C@H]3SC2(C)C)on1 (stereo not given in full) | inconclusive: 10 µM [inhibitor, partial curve] | –
50 | NC(=O)CC(NC(=O)Cc1cccc2ccccc12)c1ccc(NC2CCCCCCC2)c([N+](=O)[O-])c1 (stereo not given) | inconclusive: 31.6 µM [inhibitor, partial curve, poor fit] | –
51 | COc1ccc(N2CCN(S(=O)(=O)c3ccc(-c4cc(C(F)(F)F)on4)s3)CC2)cc1 | – | inactive: -2.15%
52 | COc1cc(C2Nc3cccc4cccc(c34)N2)cc(OC)c1O | inconclusive: 10 µM [inhibitor, partial curve, poor fit] | –
53 | O=C(CCCN1C(=O)/C(=C\c2cccs2)SC1=S)Nc1cccc(C(=O)O)c1 | – | inactive: 9.37%
54 | NC(=O)c1c(/N=C/c2cccs2)sc2c1CCCC2 | inconclusive: 12.6 µM [inhibitor, partial curve, poor fit] | –
55 | CCOC(=O)C1CCN(C(=O)CN(c2cccc(OC)c2)S(=O)(=O)c2ccccc2)CC1 | inconclusive: 56.2 µM [inhibitor, partial curve, poor fit] | –
56 | Cc1ccc(NC(=O)CCS(=O)(=O)c2ccc(Br)s2)cc1 | – | inactive: 158%
57 | COc1cc(C(=O)NC2CCN(C)CC2)ccc1Nc1ncc2c(n1)N(CCc1ccccc1)CCC(=O)N2C | – | inactive: -12.9%
58 | O=C(O)c1ccc(NC2=Nc3cccc4cccc2c34)cc1 | inconclusive: 28.2 µM [inhibitor, partial curve, poor fit] | –
59 | CCOc1ccc(NC(=O)Cn2nnc(C(=O)OC)c2C(=O)OC)cc1 | – | inactive: -2.6%
60 | COc1cccc(NC(=O)CSc2nc3c(sc4ccccc43)c(=O)n2CCN(C)C)c1 | inconclusive: 35.5 µM [inhibitor, partial curve, poor fit] | –
